Laboratory results reported in PubChem BioAssay (Tox21).
“And” between values parts separate entries of the source, which are not always exact repeats. Equal entries are not always repeated. The inconclusive results got no clear call from the source; some entries with a clear call stand among them for comparison. Where the call is inconclusive, the potency comes from a doubtful curve fit. The source made the active and inactive calls. Calls come from the whole dose curve; as a rule, active = well fitted curve in the direction sought with a large enough effect in the repeat runs; inconclusive = weak or mixed curves; inactive = no such curve, though single readings can be large; an effect the other way counts as inactive or inconclusive.

Protein sequences, listed by entry. Tags and fused reporters are not part of them. Lines headed by an entry give the natural chain unless they say otherwise; changes in a name come on top.
UniProt P11712, whole entry, looked up: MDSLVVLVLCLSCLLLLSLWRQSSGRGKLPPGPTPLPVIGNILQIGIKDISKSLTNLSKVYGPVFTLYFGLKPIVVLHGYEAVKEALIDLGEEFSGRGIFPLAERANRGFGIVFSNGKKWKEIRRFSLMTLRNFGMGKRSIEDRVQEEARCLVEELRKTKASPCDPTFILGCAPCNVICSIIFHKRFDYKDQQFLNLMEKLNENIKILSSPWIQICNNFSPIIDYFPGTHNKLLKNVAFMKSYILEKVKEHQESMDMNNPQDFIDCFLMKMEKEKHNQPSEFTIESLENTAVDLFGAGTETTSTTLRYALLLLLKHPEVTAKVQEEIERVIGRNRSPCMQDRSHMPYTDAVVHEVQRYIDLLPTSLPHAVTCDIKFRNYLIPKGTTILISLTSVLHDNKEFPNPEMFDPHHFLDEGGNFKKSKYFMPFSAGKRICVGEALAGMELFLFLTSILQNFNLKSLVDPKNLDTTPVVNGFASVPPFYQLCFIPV
UniProt Q12809: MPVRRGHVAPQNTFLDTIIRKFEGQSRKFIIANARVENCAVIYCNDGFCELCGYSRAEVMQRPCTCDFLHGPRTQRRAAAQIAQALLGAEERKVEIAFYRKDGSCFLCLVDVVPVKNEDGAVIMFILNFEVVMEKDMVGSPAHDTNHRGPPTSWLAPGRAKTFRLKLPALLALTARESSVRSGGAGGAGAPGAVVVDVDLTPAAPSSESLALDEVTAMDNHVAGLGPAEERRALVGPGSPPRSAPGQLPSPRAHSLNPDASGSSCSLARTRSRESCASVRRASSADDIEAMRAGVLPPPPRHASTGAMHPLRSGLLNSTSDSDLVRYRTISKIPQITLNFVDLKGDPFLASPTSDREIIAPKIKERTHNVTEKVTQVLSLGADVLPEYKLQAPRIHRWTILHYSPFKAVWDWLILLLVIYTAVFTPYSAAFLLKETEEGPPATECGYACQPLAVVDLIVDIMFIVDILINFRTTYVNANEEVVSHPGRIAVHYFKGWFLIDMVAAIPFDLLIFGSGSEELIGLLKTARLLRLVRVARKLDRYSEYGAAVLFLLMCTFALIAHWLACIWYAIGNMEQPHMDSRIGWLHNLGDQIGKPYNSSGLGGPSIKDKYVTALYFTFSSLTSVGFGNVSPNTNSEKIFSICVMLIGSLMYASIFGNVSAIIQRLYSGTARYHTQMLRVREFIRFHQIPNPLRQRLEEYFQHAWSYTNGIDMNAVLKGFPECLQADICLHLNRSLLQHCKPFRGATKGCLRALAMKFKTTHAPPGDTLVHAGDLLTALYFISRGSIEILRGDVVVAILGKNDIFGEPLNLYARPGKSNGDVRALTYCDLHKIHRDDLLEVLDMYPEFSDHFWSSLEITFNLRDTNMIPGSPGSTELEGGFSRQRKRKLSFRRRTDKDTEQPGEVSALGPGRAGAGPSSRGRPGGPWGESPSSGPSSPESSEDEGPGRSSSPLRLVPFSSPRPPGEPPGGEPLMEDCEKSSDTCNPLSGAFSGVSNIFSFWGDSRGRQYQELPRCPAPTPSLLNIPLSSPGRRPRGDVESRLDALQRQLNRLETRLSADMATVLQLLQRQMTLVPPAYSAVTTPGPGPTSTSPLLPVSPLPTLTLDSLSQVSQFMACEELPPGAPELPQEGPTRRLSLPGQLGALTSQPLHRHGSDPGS
UniProt P05177, whole entry, looked up: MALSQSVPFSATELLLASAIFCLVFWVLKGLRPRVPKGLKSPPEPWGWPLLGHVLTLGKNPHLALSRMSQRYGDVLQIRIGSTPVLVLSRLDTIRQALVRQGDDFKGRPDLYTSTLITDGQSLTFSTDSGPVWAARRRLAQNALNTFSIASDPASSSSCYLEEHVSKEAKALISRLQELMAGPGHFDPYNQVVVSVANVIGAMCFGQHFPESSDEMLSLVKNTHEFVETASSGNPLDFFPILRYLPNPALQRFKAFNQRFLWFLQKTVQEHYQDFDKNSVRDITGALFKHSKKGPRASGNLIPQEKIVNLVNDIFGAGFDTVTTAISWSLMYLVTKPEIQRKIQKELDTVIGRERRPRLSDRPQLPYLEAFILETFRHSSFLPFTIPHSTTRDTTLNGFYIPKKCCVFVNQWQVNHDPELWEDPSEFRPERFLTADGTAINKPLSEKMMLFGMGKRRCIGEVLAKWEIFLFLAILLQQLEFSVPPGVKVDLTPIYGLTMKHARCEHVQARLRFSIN
UniProt P08684, whole entry, looked up: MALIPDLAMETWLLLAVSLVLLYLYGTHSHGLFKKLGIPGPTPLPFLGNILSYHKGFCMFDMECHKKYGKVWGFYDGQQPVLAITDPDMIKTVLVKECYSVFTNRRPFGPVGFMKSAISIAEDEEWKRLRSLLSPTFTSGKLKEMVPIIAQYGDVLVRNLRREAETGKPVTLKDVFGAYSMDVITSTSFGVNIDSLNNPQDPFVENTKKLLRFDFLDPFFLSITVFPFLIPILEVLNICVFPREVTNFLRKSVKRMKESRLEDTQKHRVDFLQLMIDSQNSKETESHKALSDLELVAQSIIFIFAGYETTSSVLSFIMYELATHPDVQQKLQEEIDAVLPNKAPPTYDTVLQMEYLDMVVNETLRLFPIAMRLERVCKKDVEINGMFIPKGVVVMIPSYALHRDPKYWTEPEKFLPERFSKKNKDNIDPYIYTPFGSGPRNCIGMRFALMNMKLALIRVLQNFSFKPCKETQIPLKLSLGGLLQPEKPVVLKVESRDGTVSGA

Columns and labels:
[1] = target: Cytochrome P450 2C9 (Homo sapiens) (UniProt P11712); assay: Cytochrome P450 Family 2 Subfamily C Member 9 (CYP2C9) small molecule antagonists: luciferase reporter qHTS assay (AID 1671198)
Outline: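 Enzyme-substrate mix preincubated with compound 10 min at room temperature; reaction started with NADPH regeneration solution, 1 h 37C. Luminescent luciferin product read after 20 min detection reagent.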

[2] = target: Voltage-gated inwardly rectifying potassium channel KCNH2 (Homo sapiens) (UniProt Q12809); assay: Human Ether-a-go-go-Related Gene (hERG) channel small molecule antagonists: fluorescence cell-based qHTS assay (AID 1671200)
Outline: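 Measured: Tl+ flux via fluorescence (480/540 nm) in hERG-expressing U2OS cells after 1 h dye loading at room temperature.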

[3] = target: Cytochrome P450 1A2 (Homo sapiens) (UniProt P05177); assay: Cytochrome P450 Family 1 Subfamily A Member 2 (CYP1A2) small molecule antagonists: luciferase reporter qHTS assay (AID 1671199)
Outline: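 Luminescence readout (relative luminescence units) after luciferin detection reagent, 20 min RT. Preceded by 1 h room-temperature CYP1A2 reaction with NADPH regeneration solution following 10 min compound preincubation with enzyme and proluciferin substrate. Furafylline positive control.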

[4] = target: Cytochrome P450 3A4 (Homo sapiens) (UniProt P08684); assay: Cytochrome P450 Family 3 Subfamily A Member 4 (CYP3A4) small molecule antagonists: luciferase reporter qHTS assay (AID 1671201)
Outline: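 Setup: enzyme-substrate mix, compound pin transfer, 10 min RT. Reaction: NADPH regeneration solution, 1 h RT. Readout: detection reagent stops turnover, luminescence measured after 20 min, expressed in relative luminescence units.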
Note: nearly all actives have a fitted effect of over 50% in size.
Potency is the fitted concentration of half-maximal effect.

Row | SMILES | Potency [1] | Potency [2] | Potency [3] | Potency [4]
1 | C=CC(=O)OCC(CO)(COCC(COC(=O)C=C)(COC(=O)C=C)COC(=O)C=C)COC(=O)C=C | active: 7.02 µM | inconclusive: 6.09 µM [inhibitor, full curve] | – | –
2 | CCCCCCCCCCCCOCC1CO1 (configuration not stated) | inconclusive: 63.4 µM [inhibitor, partial curve, poor fit] | – | inconclusive: 76 µM [inhibitor, partial curve] | –
3 | CCc1ccc(O)cc1 | inconclusive: 71.3 µM [inhibitor, partial curve, poor fit] | – | inconclusive: 40.4 µM [inhibitor, partial curve] | –
4 | CC(C)Cc1ccccc1 | inactive | inactive | inconclusive: 31.2 µM [inhibitor, partial curve] | inactive
5 | Brc1ccccc1-c1ccccc1 | inconclusive: 56.5 µM [inhibitor] | active: 31.4 µM | – | –
6 | Brc1cc(Oc2cc(Br)c(Br)c(Br)c2Br)c(Br)c(Br)c1Br | inconclusive: 25.3 µM [inhibitor, full curve, poor fit] and inconclusive: 24.2 µM [inhibitor, partial curve] | – | inconclusive: 27.2 µM [inhibitor, partial curve] | –
7 | Cc1ccc(O)c(C(C)(C)C)c1 | inconclusive: 79.5 µM [inhibitor, partial curve] and inconclusive: 39.9 µM [inhibitor, partial curve] | – | inconclusive: 63.2 µM [inhibitor, partial curve] and inconclusive: 63.3 µM [inhibitor, partial curve] | inconclusive: 89.2 µM [inhibitor, single point] and inconclusive: 39.9 µM [inhibitor, partial curve]
